Reference: PubChem BioAssay AID686937 (Drosophila RNAi Screening Center, 2013)
In all, the deposit lists about 23,000 reagents; shown is a random part of those with a known target gene and a result. 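Reduced-secretion tags in replicate 1 do not always agree with the z-scores; no criterion for assigning the tags was given.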 Not all columns of the deposit are shown. The record does not give: the amount of reagent.

Purpose: 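Genes whose loss weakens secretory pathway function in fly cells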 (primary screen)
System: Drosophila S2 cells expressing secreted horseradish peroxidase
Knock-down reagent: long dsRNA against Drosophila genes
Timing: about 5.5 days (5 days dsRNA, then 12 h reporter induction)
Conditions: reporter expression induced after 5 days of dsRNA, read 12 h later; inducer not stated
Read-out: 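After 5 days of dsRNA and 12 h of reporter induction, medium peroxidase read by chemiluminescence and scored as per-plate z-score; higher values mean more reporter released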
Scale: z-score: higher = more reporter secreted into medium

CG13577 [SID104184005]
- z-score, replicate 1: 0.03

meso18E [SID104200143]
- z-score, replicate 1: -0.48

CG9875 [SID104184377]
- z-score, replicate 1: 0.4

CG16826 [SID104182319]
- z-score, replicate 1: 0.28

Snap29 (Synaptosomal-associated protein 29kDa) [SID104184513]
- z-score, replicate 1: 0.43

CG31612 [SID104183489]
- z-score, replicate 1: 0.11

CG31612 [SID104183490]
- z-score, replicate 1: -0.1

Ms (Myosuppressin) [SID104195833]
- z-score, replicate 1: -0.34

CG14626 [SID104198423]
- z-score, replicate 1: 0.41

CG31125 [SID104193476]
- z-score, replicate 1: 0.18

Cht12 (Chitinase 12) [SID104183636]
- z-score, replicate 1: -0.38

Prtl99C (Protamine-like 99C) [SID104194841]
- z-score, replicate 1: 0.06

CG8564 [SID104190789]
- z-score, replicate 1: 0.4

NitFhit (Nitrilase and fragile histidine triad fusion protein) [SID104188472]
- z-score, replicate 1: 0.37

l(2)41Ab (lethal (2) 41Ab) [SID104200799]
- z-score, replicate 1: -0.09

The list goes on, starting with the last 5 of the part before.
Cht12 (Chitinase 12) [SID104183636]
- z-score, replicate 1: -0.38

Prtl99C (Protamine-like 99C) [SID104194841]
- z-score, replicate 1: 0.06

CG8564 [SID104190789]
- z-score, replicate 1: 0.4

NitFhit (Nitrilase and fragile histidine triad fusion protein) [SID104188472]
- z-score, replicate 1: 0.37

l(2)41Ab (lethal (2) 41Ab) [SID104200799]
- z-score, replicate 1: -0.09

p24-1 (p24-related-1) [SID104199619]
- z-score, replicate 1: -0.17

Cyfip (Cytoplasmic FMR1 interacting protein) [SID104195471]
- z-score, replicate 1: 0.14

dbe (dribble) [SID104180603]
- z-score, replicate 1: 0.37

Sec15 (Secretory 15) [SID104195971]
- z-score, replicate 1: -0.33

phol (pleiohomeotic like) [SID104190159]
- z-score, replicate 1: -0.13

hpRNA:CR32205 (hairpin RNA:CR32205) [SID104189402]
- z-score, replicate 1: 0.13

hpRNA:CR32205 (hairpin RNA:CR32205) [SID104189682]
- z-score, replicate 1: 0.1

qkr54B (quaking related 54B) [SID104187462]
- z-score, replicate 1: 0.33

Rpi (Ribose-5-phosphate isomerase) [SID104184375]
- z-score, replicate 1: -0.01

raskol [SID104198994]
- z-score, replicate 1: 0.57

raskol [SID104199523]
- z-score, replicate 1: 0.34

raskol [SID104199756]
- z-score, replicate 1: 0.29

raskol [SID104199759]
- z-score, replicate 1: -2.68

raskol [SID104201449]
- z-score, replicate 1: -0.67

CG3760 [SID104184207]
- z-score, replicate 1: 0.68

Crk (Crk oncogene) [SID104196955]
- z-score, replicate 1: 0.22

CG11902 [SID104194226]
- z-score, replicate 1: -2.21

Cpr78Ca (Cuticular protein 78Ca) [SID104191443]
- z-score, replicate 1: 0.35

CG34428 [SID104189911]
- z-score, replicate 1: 0.24

CG34183 [SID104180891]
- z-score, replicate 1: 0.13

colt (congested-like trachea) [SID104180600]
- z-score, replicate 1: 0.13

TwdlE (TweedleE) [SID104182184]
- z-score, replicate 1: 0.45

CG7251 [SID104182831]
- z-score, replicate 1: 0.22

Delta [SID104196440]
- z-score, replicate 1: 0.38

alpha-Est8 (alpha-Esterase-8) [SID104192412]
- z-score, replicate 1: 0.09
